Measured values from patent publication US20250205375A1, “HER3 RADIOIMMUNOTHERAPY FOR THE TREATMENT OF SOLID CANCERS” (ACTINIUM PHARMACEUTICALS, INC., priority 2023, published 2025).
These are yes or no findings as the source states them, for the method shown. Some results given as binding are weak or reduced against the parent protein; the word gives no strength.

Chains of the proteins cited; added tags and fusions are not shown. Lines headed by an entry give the natural chain unless they say otherwise; changes in a name come on top.
UniProt P21860: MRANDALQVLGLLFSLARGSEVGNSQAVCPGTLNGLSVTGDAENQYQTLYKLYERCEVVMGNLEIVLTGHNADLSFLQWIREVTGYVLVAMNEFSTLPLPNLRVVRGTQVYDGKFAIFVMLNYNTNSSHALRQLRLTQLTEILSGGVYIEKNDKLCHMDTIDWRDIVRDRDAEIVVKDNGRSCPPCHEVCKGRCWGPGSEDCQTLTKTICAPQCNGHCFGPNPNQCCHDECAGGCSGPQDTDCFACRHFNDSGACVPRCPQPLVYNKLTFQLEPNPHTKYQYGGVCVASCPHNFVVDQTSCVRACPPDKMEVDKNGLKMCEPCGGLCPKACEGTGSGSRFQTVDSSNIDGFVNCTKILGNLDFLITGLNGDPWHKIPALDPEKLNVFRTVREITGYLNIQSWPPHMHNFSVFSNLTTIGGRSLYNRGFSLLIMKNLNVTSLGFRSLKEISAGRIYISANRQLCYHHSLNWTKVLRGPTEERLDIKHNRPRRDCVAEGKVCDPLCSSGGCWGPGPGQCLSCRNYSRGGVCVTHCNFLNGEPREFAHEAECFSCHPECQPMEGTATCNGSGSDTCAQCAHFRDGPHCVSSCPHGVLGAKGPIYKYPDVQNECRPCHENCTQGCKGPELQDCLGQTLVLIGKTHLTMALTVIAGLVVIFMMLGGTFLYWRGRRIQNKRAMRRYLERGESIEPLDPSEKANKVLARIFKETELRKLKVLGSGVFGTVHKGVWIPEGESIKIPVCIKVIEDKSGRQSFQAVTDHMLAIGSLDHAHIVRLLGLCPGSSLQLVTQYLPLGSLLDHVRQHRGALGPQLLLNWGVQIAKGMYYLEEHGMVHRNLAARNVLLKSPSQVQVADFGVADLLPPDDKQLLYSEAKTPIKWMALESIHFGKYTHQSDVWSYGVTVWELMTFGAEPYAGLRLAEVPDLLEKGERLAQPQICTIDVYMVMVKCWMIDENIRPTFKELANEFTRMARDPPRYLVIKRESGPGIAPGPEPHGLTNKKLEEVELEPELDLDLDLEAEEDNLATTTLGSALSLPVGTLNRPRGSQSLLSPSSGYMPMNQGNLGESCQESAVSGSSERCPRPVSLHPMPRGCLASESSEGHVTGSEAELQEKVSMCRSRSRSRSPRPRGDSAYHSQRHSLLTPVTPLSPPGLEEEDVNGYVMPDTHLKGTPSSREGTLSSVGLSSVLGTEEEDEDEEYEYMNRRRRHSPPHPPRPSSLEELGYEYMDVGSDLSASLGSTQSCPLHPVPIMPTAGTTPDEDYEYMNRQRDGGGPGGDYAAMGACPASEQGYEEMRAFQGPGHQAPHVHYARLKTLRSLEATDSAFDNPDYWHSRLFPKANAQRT

B1: AV-203 (naked, unlabeled anti-HER3 monoclonal antibody) (antibody, V domains shown)
VH: QVQLVESGGGLVKPGGSLRLSCAASGFTFSDYAMSWIRQAPGKGLEWVSTISDGGTYTYYPDSVKGRFTISRDNAKNSLYLQMNSLRAEDTAVYYCAREWGDYDGFDYWGQGTLVTVSS
VL: DIQMTQSPSSLSASVGDRVTITCRASQEISGYLSWYQQKPGKAPKRLIYAASTLDSGVPSRFSGSGSGTEFTLTISSLQPEDFATYYCLQYDSYPYTFGQGTKLEIK
B2: AV-203, DOTA-conjugated (p-SCN-Bn-DOTA-conjugated anti-HER3 monoclonal antibody) (antibody, V domains shown)
VH: QVQLVESGGGLVKPGGSLRLSCAASGFTFSDYAMSWIRQAPGKGLEWVSTISDGGTYTYYPDSVKGRFTISRDNAKNSLYLQMNSLRAEDTAVYYCAREWGDYDGFDYWGQGTLVTVSS
VL: DIQMTQSPSSLSASVGDRVTITCRASQEISGYLSWYQQKPGKAPKRLIYAASTLDSGVPSRFSGSGSGTEFTLTISSLQPEDFATYYCLQYDSYPYTFGQGTKLEIK
modifications: p-SCN-Bn-DOTA-conjugated; sites not stated

Molecular target: human HER3 on HER3-positive human cancer cell lines (NCI-H1975, BxPC-3, DU145, 22RV1, LnCAP) (human) (UniProt P21860)
Assay: fluorescence flow cytometry cell binding assay on DU145, 22RV1 and LnCAP cells

Row | Binder | binding
1 | B1 | binds
2 | B2 | binds
